Reference: patent US8779202B2, “Compositions and methods for the treatment of giardiasis” (Georgetown University, priority 2009, dated 2014)
Some results were stated once for a whole list of compounds, not compound by compound.

Experiments:
[1] = tested on: Giardia lamblia parasites; assay: Giardia attachment to polystyrene microplates; type: cell-based; details: for reduction of attachment of Giardia lamblia parasites: 50 μM, triplicate, median relative to adjacent untreated well; for reduction of Giardia attachment: amounts as low as 5 μM (FIG. 1 dose-dependency)
[2] = tested on: IEC-6 cells; assay: Short-term IEC-6 viability and attachment (DEAD Red / SYTO 16 dual stain); type: cell-based; details: for IEC-6 cells remained attached / IEC-6 cells remained viable: 50 μM, two hours, in PBS; for IEC-6 cells remained attached and viable: amounts as low as 5 μM
[3] = tested on: IEC-6 cells; assay: Long-term IEC-6 viability and attachment (Trypan Blue exclusion); type: cell-based, rat; details: 50 μM, 2-48 hours, in culture media; for IEC-6 cells remained viable: Trypan Blue

SMILES	reduction of attachment of Giardia lamblia parasites [1]	reduction of Giardia attachment [1]	IEC-6 cells remained attached [2]	IEC-6 cells remained viable [2]	IEC-6 cells remained attached and viable [2]	IEC-6 cells remained viable [3]	IEC-6 cells remained attached [3]
Oc1ccc2ccccc2c1CN(Cc1c(O)ccc2ccccc12)C1CCCCC1 [Compound I-16]	at least 80%	at least 50%	–	–	–	–	–
C[C@H]1CC[C@@H]2[C@@H](C)[C@H]3[C@H](C[C@H]4[C@@H]5CC=C6C[C@@H](O)CC[C@]6(C)[C@H]5CC[C@]34C)N2C1 [Compound VIII-2A]	at least 80%	at least 50%	at least 50%	at least 75%	at least 85%	at least 75%	–
Cc1c(Cl)cc(C(C)(C)C)c(O)c1Cc1c(C)c(Cl)cc(C(C)(C)C)c1O [Compound VI-1]	at least 80%	at least 50%	–	–	–	–	–
CC(Br)C(=O)c1ccc2cc(Br)c3ccccc3c2c1 (centres unmarked) [Compound III-1]	at least 80%	at least 50%	at least 50%	at least 75%	at least 85%	at least 75%	at least 75%
Nc1nc(SCc2ccccc2[N+](=O)[O-])c2[nH]cnc2n1 [Compound V-1]	at least 80%	at least 50%	–	at least 75%	at least 85%	–	–
O=C1C=C(N2CCN(c3ccccn3)CC2)C(=O)c2c(O)ccc(O)c21 [Compound IV-1]	at least 80%	at least 50%	–	at least 75%	at least 85%	at least 75%	–
